Experimental data: patent publication US20050064558
Construct, isoform or probe ends are uncertain for at least one entry. Results from cells or extracts need not show a direct contact.

Amino acid sequences for entries named in this document (tags omitted). Residues count along the entry.
UniProt P40763, 2-770: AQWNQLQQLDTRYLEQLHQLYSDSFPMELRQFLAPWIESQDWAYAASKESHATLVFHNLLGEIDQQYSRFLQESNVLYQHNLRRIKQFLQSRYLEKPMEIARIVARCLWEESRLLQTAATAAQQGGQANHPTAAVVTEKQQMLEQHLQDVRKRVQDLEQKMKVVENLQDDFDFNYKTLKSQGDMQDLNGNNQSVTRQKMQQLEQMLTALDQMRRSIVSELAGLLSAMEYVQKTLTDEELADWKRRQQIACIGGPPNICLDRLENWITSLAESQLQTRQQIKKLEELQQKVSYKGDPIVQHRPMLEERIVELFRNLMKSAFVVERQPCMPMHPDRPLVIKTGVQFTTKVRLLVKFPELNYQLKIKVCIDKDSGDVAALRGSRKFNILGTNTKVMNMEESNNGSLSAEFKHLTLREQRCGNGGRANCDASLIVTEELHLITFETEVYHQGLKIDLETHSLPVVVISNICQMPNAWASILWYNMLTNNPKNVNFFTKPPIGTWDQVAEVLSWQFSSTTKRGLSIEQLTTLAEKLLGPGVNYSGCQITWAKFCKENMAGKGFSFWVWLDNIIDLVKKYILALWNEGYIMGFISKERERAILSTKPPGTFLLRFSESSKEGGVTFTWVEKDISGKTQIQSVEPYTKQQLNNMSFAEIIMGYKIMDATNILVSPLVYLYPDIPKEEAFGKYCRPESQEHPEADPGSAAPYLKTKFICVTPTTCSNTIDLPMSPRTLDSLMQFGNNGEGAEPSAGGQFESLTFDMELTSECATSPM

What was measured:
[1] = test system: C/EBP (NF-IL-6 + family member not distinguished) (Homo sapiens); assay: EMSA; settings: HPMC nuclear extract; DS-sIL-6R + IL-6 enhances binding; family member not identified; protein in an extract; label: 32P (dTTP Klenow fill-in)
STAT-3 (Homo sapiens) = STAT-3 (Homo sapiens) (UniProt P40763); assay: EMSA; settings: HPMC nuclear extract; both sIL-6R isoforms with IL-6 activate STAT-3; no supershift; protein in an extract; label: 32P (dTTP Klenow fill-in)

## GACGTCACATTGCACAATCTTAA / TATTAAGATTGTGCAATGTGACG [C/EBP consensus oligonucleotide]
[1]
  binding result: binds

## CGACATTTCCCGTAAATCG / CGACGATTTACGGGAAATG [STAT-3 SIE-m67 oligonucleotide]
STAT-3 (Homo sapiens)
  binding result: binds
